Assay results reported in article PMC8306025.
Results are given in words; binding and its absence hold for the method and conditions named. Binding seen in cells or lysates may run through a third protein. Some entries that bind do so weakly or less than the wild type.

The chains behind the UniProt entries cited, without tags or fusion partners.
UniProt Q04206: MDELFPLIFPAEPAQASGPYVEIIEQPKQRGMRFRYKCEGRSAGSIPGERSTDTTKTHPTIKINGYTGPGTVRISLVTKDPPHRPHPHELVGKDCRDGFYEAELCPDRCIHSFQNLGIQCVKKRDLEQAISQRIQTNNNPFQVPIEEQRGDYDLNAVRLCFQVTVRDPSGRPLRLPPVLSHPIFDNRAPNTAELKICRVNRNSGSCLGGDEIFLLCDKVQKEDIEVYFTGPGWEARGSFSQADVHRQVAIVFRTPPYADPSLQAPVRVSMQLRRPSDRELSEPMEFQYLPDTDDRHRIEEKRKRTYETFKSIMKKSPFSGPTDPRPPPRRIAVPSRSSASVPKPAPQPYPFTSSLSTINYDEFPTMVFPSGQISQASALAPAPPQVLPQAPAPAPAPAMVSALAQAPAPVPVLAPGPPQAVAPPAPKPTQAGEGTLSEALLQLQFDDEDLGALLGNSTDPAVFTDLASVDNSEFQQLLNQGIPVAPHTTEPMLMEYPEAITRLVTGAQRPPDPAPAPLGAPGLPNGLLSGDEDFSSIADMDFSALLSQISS
UniProt P48436: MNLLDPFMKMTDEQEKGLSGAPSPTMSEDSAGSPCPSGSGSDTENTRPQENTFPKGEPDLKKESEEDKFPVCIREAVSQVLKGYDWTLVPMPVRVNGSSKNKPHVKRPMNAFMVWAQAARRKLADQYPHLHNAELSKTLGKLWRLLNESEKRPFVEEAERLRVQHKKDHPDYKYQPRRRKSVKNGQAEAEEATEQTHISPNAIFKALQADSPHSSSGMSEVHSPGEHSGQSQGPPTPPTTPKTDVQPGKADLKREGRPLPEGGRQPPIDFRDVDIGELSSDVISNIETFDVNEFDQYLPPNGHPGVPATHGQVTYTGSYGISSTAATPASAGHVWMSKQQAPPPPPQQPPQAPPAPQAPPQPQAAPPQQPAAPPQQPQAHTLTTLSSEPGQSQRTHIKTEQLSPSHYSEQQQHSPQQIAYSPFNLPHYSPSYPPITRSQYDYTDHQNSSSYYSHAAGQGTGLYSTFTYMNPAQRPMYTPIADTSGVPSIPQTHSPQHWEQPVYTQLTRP

Legend:
[1] = molecular target: p65-NF-kB (human (endogenous in primary human chondrocytes)) (UniProt Q04206); assay: co-IP; cell extracts of primary human chondrocytes from untreated control cultures (no curcumin, no BMS-345541); IP with antibodies to p65-NF-kB, immunoblot with anti-Sox9
[2] = molecular target: p65-NF-kB (human (endogenous in primary human chondrocytes)) (UniProt Q04206); assay: co-IP; cell extracts of primary human chondrocytes from alginate cultures (basal control or OA-EN co-culture with fibroblasts and T-lymphocytes) treated with curcumin or BMS-345541; IP with antibodies to p65-NF-kB, immunoblot with anti-Sox9; primary antibodies 4 °C 2 h, then S. aureus (SAC) 4 °C 1 h

binding [1]: binds weakly | binding [2]: binds
Substance: Sox9 (SRY-Box Transcription Factor 9) (from UniProt P48436 1-509)
